Experimental data reported in the supplement of paper PMC7877785.
± gives the uncertainty stated by the source. Many of these values have a large error.

Test: self-splicing fitness, log relative to wild type (ln ratio); higher = more splicing; Tetrahymena group I intron in knt gene, E. coli kanamycin selection, DiMSum; sequences stand for … in CUCUCU…GGAGGGAAAAGUUAUCAGGCAUGCACCUGGUAGCUAGUCUUUAAACCAAUAGAUUGCAUCGGUUUAAAAGGCAAGACCGUCAAAUUGCGGGAAAGGGGUCAACAGCCGUUCAGUACCAAGUCUCAGGGGAAACUUUGAGAUGGCCUUGCAAAGGGUAUGGUAAUAAGCUGACGGACAUGGUCCUAACCACGCAGCCAAGUCCUAAGUCAACAGAUCUUCUGUUGAUAUGGAUGCAGUUCACAGACUAAAUGUCGGUCGGGGAAGAUGUAUUCUUCUCAUAAGAUAUAGUCGGACCUCUCCUUAAUGGGAGCUAGCGGAUGAAGUGAUGCAACACUGGAGCCGCUGGGAACUAAUUUGUAUGCGAAAGUAUAUUGAUUAGUUUUGGAGUACUCGUGGUCG
In short: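 Fitness was computed with DiMSum as the error-weighted combination of replicate fold changes, kanamycin versus none, each normalised to wild type. The library randomised all eight intron nucleotides of the P1ex region, with the intron placed in the knt kanamycin-resistance gene on pET-22b(+) in E. coli BL21(DE3). Six replicate transformations were grown overnight at 37°C or 30°C on LB agar with or without 25 μg/mL kanamycin, plus 100 μg/mL carbenicillin, 50 μM IPTG and 0.2% rhamnose. Pooled colonies were amplicon-sequenced on an Illumina HiSeq 2500.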

Sequence | self-splicing fitness (ln) (30 °C) | self-splicing fitness (ln) (37 °C)
GUGAAGCAAUAUUACGCGUU | -3.59 ± 0.2 | -2.02 ± 0.21
UACUAGCAAUAUUACGUACG | -2.76 ± 0.1 | -1.31 ± 0.091
UAUGAGCAAUAUUACGCCAA | -3.35 ± 0.65 | –
GCUGAGCAAUAUUACGCCAA | -4.32 ± 1 | –
CCUUAGCAAUAUUACGCAGG | -4.57 ± 0.52 | -2.72 ± 1.1
AAGGAGCAAUAUUACGUCUC | – | -1.6 ± 0.6
AUAGAGCAAUAUUACGAGCC | -3.19 ± 0.78 | -2.23 ± 1.1
GUCGAGCAAUAUUACGCGAU | – | -3.62 ± 0.59
UCCGAGCAAUAUUACGACCA | -3.19 ± 1.2 | -2.22 ± 0.55
UGCGAGCAAUAUUACGCGCA | – | -1.26 ± 0.64
AACGAGCAAUAUUACGCAAA | -2.87 ± 1.1 | –
AAAGAGCAAUAUUACGGUUA | -2.49 ± 0.21 | -2.06 ± 0.18
AGGGAGCAAUAUUACGCUAA | -2.38 ± 0.76 | –
AACGAGCAAUAUUACGCCCA | -2.09 ± 1 | 0.659 ± 1.2
CCCGAGCAAUAUUACGACCC | -1.52 ± 1.2 | –
CGUUAGCAAUAUUACGGCUC | -1.75 ± 0.33 | 0.277 ± 0.22
GCUGAGCAAUAUUACGUGCC | – | -2.24 ± 0.64
CAUCAGCAAUAUUACGUGAA | -0.729 ± 0.055 | -0.211 ± 0.09
CUAAAGCAAUAUUACGACGC | -3.72 ± 1 | –
GAGGAGCAAUAUUACGAGCU | -0.54 ± 0.76 | –
AGAGAGCAAUAUUACGCUGU | -4.09 ± 0.73 | –
GAGCAGCAAUAUUACGGACC | -0.847 ± 0.11 | -0.206 ± 0.16
GCGGAGCAAUAUUACGGCCC | -1.82 ± 0.63 | –
GUUGAGCAAUAUUACGAACG | -2.87 ± 0.62 | –
UCUUAGCAAUAUUACGCCCC | -3.84 ± 0.73 | -1.18 ± 0.92
AUCCAGCAAUAUUACGCUCC | -0.802 ± 0.12 | 0.304 ± 0.2

Random excerpt: 4 records from the list
Sequence | self-splicing fitness (ln) (30 °C) | self-splicing fitness (ln) (37 °C)
AUAGAGCAAUAUUACGAGCC | -3.19 ± 0.78 | -2.23 ± 1.1
CCUUAGCAAUAUUACGCAGG | -4.57 ± 0.52 | -2.72 ± 1.1
GUUGAGCAAUAUUACGAACG | -2.87 ± 0.62 | –
CUAAAGCAAUAUUACGACGC | -3.72 ± 1 | –

Continued:

Sequence | self-splicing fitness (ln) (30 °C) | self-splicing fitness (ln) (37 °C)
UGGGAGCAAUAUUACGCCCU | -4.36 ± 1 | -2.05 ± 0.51
CCCCAGCAAUAUUACGAUCG | -2.85 ± 0.13 | -0.917 ± 0.14
AUCGAGCAAUAUUACGAAUC | -2.84 ± 0.75 | -3.41 ± 0.74
GACGAGCAAUAUUACGCUUC | -1.69 ± 0.93 | -0.78 ± 0.61
CGGAAGCAAUAUUACGAAUA | – | -3.31 ± 0.52
UUGUAGCAAUAUUACGUUGC | – | -2.29 ± 0.46
CUUUAGCAAUAUUACGGCCU | – | -2.54 ± 1.1
CCUAAGCAAUAUUACGGACC | – | -2.41 ± 0.63
GGUGAGCAAUAUUACGUCAG | -1.42 ± 0.63 | -2.04 ± 0.51
UAGUAGCAAUAUUACGCUUC | -2.81 ± 1.1 | –
CUAGAGCAAUAUUACGAAGU | – | -1.47 ± 0.87
CAAGAGCAAUAUUACGCCGU | – | -3.74 ± 1
UGAGAGCAAUAUUACGAGUC | -5.2 ± 1 | –
AGGGAGCAAUAUUACGUUGA | -3.48 ± 0.53 | –
GGGAAGCAAUAUUACGCACC | – | -0.594 ± 0.78
UUUUAGCAAUAUUACGGAUC | -1.86 ± 0.53 | -2.02 ± 0.68
CUUCAGCAAUAUUACGCGAA | -4.06 ± 0.72 | -2.96 ± 0.61
CGACAGCAAUAUUACGUAAA | -3.02 ± 0.15 | -2.28 ± 0.21
CAUUAGCAAUAUUACGAGGA | – | -2.55 ± 0.54
UGGAAGCAAUAUUACGAAGU | – | -2.94 ± 0.53
GUAUAGCAAUAUUACGCGGC | -2.01 ± 0.57 | -2 ± 0.52
GUGAAGCAAUAUUACGACCU | -2.66 ± 1.1 | 0.753 ± 0.57
UCUUAGCAAUAUUACGCGUC | – | -3.94 ± 0.72
AACCAGCAAUAUUACGUUUC | -4.08 ± 0.17 | -2.92 ± 0.21
AAGGAGCAAUAUUACGGUUA | – | -1.36 ± 0.63
UUGGAGCAAUAUUACGCGGC | -2.54 ± 0.64 | –
